The target in this data set is T1, c-Rel (NF-kB site binding factor) (UniProt Q04864).
T1 sequence (looked up, limits assumed): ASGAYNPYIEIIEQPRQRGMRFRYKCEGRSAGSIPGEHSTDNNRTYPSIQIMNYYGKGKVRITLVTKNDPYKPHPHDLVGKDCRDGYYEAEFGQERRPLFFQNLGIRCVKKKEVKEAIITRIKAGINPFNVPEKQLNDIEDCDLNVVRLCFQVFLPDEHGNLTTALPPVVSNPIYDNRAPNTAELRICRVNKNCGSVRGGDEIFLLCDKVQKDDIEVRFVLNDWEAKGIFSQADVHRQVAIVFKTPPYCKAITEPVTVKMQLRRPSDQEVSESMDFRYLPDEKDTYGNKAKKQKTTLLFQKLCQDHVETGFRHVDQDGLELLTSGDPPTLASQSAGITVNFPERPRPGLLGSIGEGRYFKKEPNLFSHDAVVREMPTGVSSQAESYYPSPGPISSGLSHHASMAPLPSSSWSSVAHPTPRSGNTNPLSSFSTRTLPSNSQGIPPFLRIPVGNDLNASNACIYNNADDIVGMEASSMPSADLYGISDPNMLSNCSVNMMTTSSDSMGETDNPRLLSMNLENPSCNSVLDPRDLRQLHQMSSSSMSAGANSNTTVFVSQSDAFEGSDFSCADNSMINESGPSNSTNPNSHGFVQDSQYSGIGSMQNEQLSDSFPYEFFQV
The data set can be described thus: ELONA. As to conditions: PS; protein in an extract; label: 3' biotin.

For at least one entry, the source does not settle the construct or the ends of the probe. Where cells or extracts were used, other partners may take part. Tags and fusion partners may be left off the protein sequences shown.

“GGGGACTTTCCGCTGGGACTTTCTAG / CTGGAAAGTCCCAGCGGAAGGTCCCC [NF-kB binding site]”: the binding result is “binds”.
